Source: publication PMC7819943, “Rice protein-binding microarrays: a tool to detect cis-acting elements near promoter regions in rice”
The other results are listed elsewhere or left out.

Target: T1, OsSMF1 (Oryza sativa, UniProt Q6ZLB0 1-436)
T1 sequence: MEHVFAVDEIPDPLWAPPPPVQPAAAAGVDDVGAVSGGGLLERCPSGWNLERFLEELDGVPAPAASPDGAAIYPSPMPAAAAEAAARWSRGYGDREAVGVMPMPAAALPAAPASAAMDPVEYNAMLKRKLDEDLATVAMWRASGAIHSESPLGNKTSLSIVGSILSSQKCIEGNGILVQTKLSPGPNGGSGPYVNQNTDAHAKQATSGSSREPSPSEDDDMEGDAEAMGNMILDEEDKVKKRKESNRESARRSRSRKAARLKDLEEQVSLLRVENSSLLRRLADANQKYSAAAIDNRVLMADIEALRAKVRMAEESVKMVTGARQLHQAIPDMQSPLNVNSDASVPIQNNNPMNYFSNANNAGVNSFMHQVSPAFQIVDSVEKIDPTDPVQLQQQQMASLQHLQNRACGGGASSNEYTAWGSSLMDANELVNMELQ
Assay: protein-binding microarray (RPBM); PBS, 2% BSA, 51.3 ng/ul salmon testes DNA, 50 uM zinc acetate, 200 nM TF, 25 C, 1 h; high values mean tight binding
Conditions: protein: recombinant; tags: N-terminal polyhistidine and DsRed monomer fusion (pET32a); chain copies: 2; label: CyDye5-dUTP incorporated in the synthesized complementary strand; 3' TTTTT single-stranded linker to array surface; dsDNA, one strand shown
Method in brief: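 Using Ni–NTA, transcription factors fused N-terminally to polyhistidine and DsRed were purified after expression in E. coli BL21-CodonPlus. These were incubated at 200 nM with a blocked, double-stranded custom Agilent array for 1 h at 25 °C in a buffer containing 50 µM zinc acetate, and the array was washed. The binding signal is per-feature fluorescence intensity (arbitrary units) on an Axon 4000B scanner.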

Sequence | binding signal
CATACGGTAATCCCAGCCGCCTGCGTCACCTTCTGAATCGCGGAGTCACCTAGTGCAG | 8760 fluorescence intensity (a.u.)
TGGATGCAGTTTCAATGAACCCCGCGTCACACTGGGGACTCGGAGTCACCTAGTGCAG | 4460 fluorescence intensity (a.u.)
CCCAAATTGCATATGTGCATCTTGCCATGGTGCCATGGCACGGAGTCACCTAGTGCAG | 11600 fluorescence intensity (a.u.)
ATATACTTGGATTCGTAACATACGGAAATACCGCATACCACGGAGTCACCTAGTGCAG | 13700 fluorescence intensity (a.u.)
GTGTAGTTACCTTCTCGTAGGTGTCATCGAGGATGATGGCCGGAGTCACCTAGTGCAG | 3910 fluorescence intensity (a.u.)
TGCCGTTGCTTACACGCGCACCAATTGACACCTACAGTAACGGAGTCACCTAGTGCAG | 3940 fluorescence intensity (a.u.)
CTTGCTGTCGCGGCCATAGATACGCGTACTGACGGAAGAACGGAGTCACCTAGTGCAG | 3260 fluorescence intensity (a.u.)
TGAGCCGGAACGGTAATGTAGCTGACGTGCAGGTTGTTTTCGGAGTCACCTAGTGCAG | 6940 fluorescence intensity (a.u.)
CCTCTAGCTCTTGCATCGTGTCGTTTCTTTAGCTGCGTGTCGGAGTCACCTAGTGCAG | 3970 fluorescence intensity (a.u.)
TTGGAAGCCACACGCACGTCGGCTGCTGTATAGGGCCCATCGGAGTCACCTAGTGCAG | 3590 fluorescence intensity (a.u.)
TGGTGGTGACCCATTACCAAGAAACACACACCGTCGTCCACGGAGTCACCTAGTGCAG | 3980 fluorescence intensity (a.u.)
AAAAGGAGAGATATCATTAAGAAGTAAAGTGGCCCATGTTCGGAGTCACCTAGTGCAG | 30100 fluorescence intensity (a.u.)
TCCCCTTCCTGTCCACACAAACCTGCCTCTTCCGACCCATCGGAGTCACCTAGTGCAG | 3380 fluorescence intensity (a.u.)
TTCATTGGAGAGTGTAAGTGTTCAGGGTCAACGGAAAGAGCGGAGTCACCTAGTGCAG | 3710 fluorescence intensity (a.u.)
GTGGTGAAGTTGTCGACGTGGCACACCATCGAGCCGCTCACGGAGTCACCTAGTGCAG | 15200 fluorescence intensity (a.u.)
CATGCCGTCCCGTCGGCGCCGGTGACGTCGCGCGCCGACTCGGAGTCACCTAGTGCAG | 3270 fluorescence intensity (a.u.)
ATGCCAATTGCAAAGAGAGTGAGGCCTCACGGGGAGCGTGCGGAGTCACCTAGTGCAG | 35700 fluorescence intensity (a.u.)
AATCACTGGTATTACGGCTACCTCATGTTTTGAATCAGCTCGGAGTCACCTAGTGCAG | 3200 fluorescence intensity (a.u.)
TGACATGTAGCATTTGTACAGGTGGCATGCTCTGTGACTTCGGAGTCACCTAGTGCAG | 6800 fluorescence intensity (a.u.)
GCGGCTTCTCGCCGGCGGCGACCACCACCCGTCACCCACCCGGAGTCACCTAGTGCAG | 3380 fluorescence intensity (a.u.)
TCTCTACGGGTAGCTGTCATCACTTGCACGGTGGTGTCCCCGGAGTCACCTAGTGCAG | 3440 fluorescence intensity (a.u.)

Sequence | binding signal
ATAACAACGAATTGAATGACGAGTAATCGAACGTGGCATTCGGAGTCACCTAGTGCAG | 5460 fluorescence intensity (a.u.)
CGGTTCCGCAGCTCCAAAACGCGGGACCGTCGCGGTCCCGCGGAGTCACCTAGTGCAG | 3770 fluorescence intensity (a.u.)
TATGTAACAGCTGAGTCAGCATCCATATGTCAGGATGCCGCGGAGTCACCTAGTGCAG | 14900 fluorescence intensity (a.u.)
AATGTAGACATATATGTGTATAGATTCATTAATATATATACGGAGTCACCTAGTGCAG | 17400 fluorescence intensity (a.u.)
CAAGACGGATTTATTAAGCCTAATTAATCTATCATTAGCGCGGAGTCACCTAGTGCAG | 4110 fluorescence intensity (a.u.)
TTTCTCGCCGGCCGTCGTGTTGCGTCGCCAGTCGATCGCCCGGAGTCACCTAGTGCAG | 3570 fluorescence intensity (a.u.)
TTTGATGTGACATGATGTAAAGTTTTGGGATGGGATCTAACGGAGTCACCTAGTGCAG | 29100 fluorescence intensity (a.u.)
TCACTCGCCGGTGCGATGACACACAGCCACAGAGATGGAACGGAGTCACCTAGTGCAG | 4490 fluorescence intensity (a.u.)
GTCTCCCGGTGAGGAGCCCCACGCTCCGTCAGACTCATACCGGAGTCACCTAGTGCAG | 4410 fluorescence intensity (a.u.)
GTCAACAAGTATCTTGATTCTTGCCACGTTGTTTAGCATGCGGAGTCACCTAGTGCAG | 3250 fluorescence intensity (a.u.)
CCACGCCACTCACCCAACCCCGCCGCCACCTCGGATCCGCCGGAGTCACCTAGTGCAG | 6620 fluorescence intensity (a.u.)
GAGTGAGATAGGAATCGAGAGAGAGATGACATGGACCTTGCGGAGTCACCTAGTGCAG | 7190 fluorescence intensity (a.u.)
GGAGGAGGAGGAGGAGGGAGATGGTGGCGAGCTGACTTGGCGGAGTCACCTAGTGCAG | 4090 fluorescence intensity (a.u.)
CACCTGGATCAGTGATGCCCTGAAGGCCGCCTCTTGCTTGCGGAGTCACCTAGTGCAG | 3540 fluorescence intensity (a.u.)
TCCACCCCACGTCCTCCTCCTCCCCAGCAGTCCCACCCGCCGGAGTCACCTAGTGCAG | 3570 fluorescence intensity (a.u.)
ACCGCCGCCGCCGTCGCCGGCCATCGTCACGGCGCCGCCCCGGAGTCACCTAGTGCAG | 3190 fluorescence intensity (a.u.)
TGAGTCGTGTCCCATCCCACCTGCGCACCCAGCCCGGTAACGGAGTCACCTAGTGCAG | 8140 fluorescence intensity (a.u.)
CGCCAGCGGCCGGGAAACCCGCCGCGTGGACACAACGTCGCGGAGTCACCTAGTGCAG | 4040 fluorescence intensity (a.u.)
GACGGCCTTGCACCTTATCACCACGTGTAGATACACCAAGCGGAGTCACCTAGTGCAG | 4380 fluorescence intensity (a.u.)
CTTTCACTACCTAGGACCAAATTGATGACTGAATTTCTCGCGGAGTCACCTAGTGCAG | 3370 fluorescence intensity (a.u.)
TGCGTTTCCCGTCAGCCCTGTCACGCCGCCGCCGGTCGCCCGGAGTCACCTAGTGCAG | 5130 fluorescence intensity (a.u.)

Rewritten tab-delimited: part of the list above
Sequence	binding signal
TGAGTCGTGTCCCATCCCACCTGCGCACCCAGCCCGGTAACGGAGTCACCTAGTGCAG	8140 fluorescence intensity (a.u.)
CGCCAGCGGCCGGGAAACCCGCCGCGTGGACACAACGTCGCGGAGTCACCTAGTGCAG	4040 fluorescence intensity (a.u.)
GACGGCCTTGCACCTTATCACCACGTGTAGATACACCAAGCGGAGTCACCTAGTGCAG	4380 fluorescence intensity (a.u.)
